{
  "source": "patent US6573041B2",
  "about": "“Neuronal cell model and methods of use thereof” (priority 2000, dated 2003)",
  "key": {"[1]": {"test_system": "HSV-2 strain 333 quiescently infected ND-PC12 (QIF-PC12) cell cultures", "test": "Induction of HSV-2 from QIF-PC12 cell cultures; virus production by direct plaque assay of supernatants on Vero cells", "assay_type": "cell-based", "conditions": "HSV-2 QIF-PC12 cultures without Vero cocultivation; minimal amounts of virus detected", "experimental": "For morphologic differentiation, PC12 cells were maintained in RPMI 1640 supplemented 0.1% bovine serum albumin, fraction V (BSA) and 50 ng/ml of 2.5S mouse nerve growth nerve factor (NGF) (Becton Dickinson) (maintenance media) throughout the studies, unless indicated, beginning on the day of plating. PC12 were plated, following two rinses with RPMI 1640 containing 0.1% BSA and dissociation by passage through a 22-gauge needle, in 12-well tissue culture dishes (Bector Dickinson Labware, Franklin Lakes, N.J., USA) coated with rat tail collagen type 1 (Bector Dickinson) at 1.1×10^5 cells/well in maintenance media. Collagen was applied as recommended by the supplier. […]\nHSV QIF-PC12 cells, that were free of detectable infectious virus, were subjected to heat stress (43° C. for 3 h in an incubator), or maintenance media supplemented with or without 50 μM forskolin (Sigma) as previously described (Danaher et al, 1999a,b). Virus production was determined using 25% volume of supernatants from infected PC12 cultures in a direct plaque assay (DPA) on monolayers of Vero cells as previously described (Miller and Smith, 1991). […]\nBased on these findings, forskolin and HS induced HSV-2 reactivation from QIF-PC12 cell cultures that were cocultivated with Vero cells was analyzed in more detail. […] Virus production was monitored from day 10 through 23 p.i. […]"}, "[2]": {"test_system": "HSV-1 quiescently infected ND-PC12 (QIF-PC12) cultures", "conditions": "HSV-1 QIF-PC12; up to 8 weeks after infection; stated jointly for forskolin and HS; cited from earlier work"}},
  "note": "For at least one compound, name, drawing or mass did not settle the structure.",
  "data": [
    {"smiles": "C=C[C@@]1(C)CC(=O)[C@]2(O)[C@@]3(C)[C@@H](O)CCC(C)(C)[C@@H]3[C@H](O)[C@H](OC(C)=O)[C@@]2(C)O1", "note": "[forskolin]", "values": [
      {"measurement": "virus production following induction (preliminary data, not shown)", "setting": "[1]", "value": "produce virus"},
      {"measurement": "cultures with forskolin- and heat stress-inducible virus production", "setting": "[2]", "value": "50-100%"}
    ]}
  ]
}
